Source: US8278333B2, “Crystals of benzoxadiazole derivative” (Astellas Pharma Inc., priority 2006, dated 2012)
Some of these results come from one statement about several compounds together.

Assay: Hygroscopicity test (VTI SGA-100, 25° C., 5 to 95% relative humidity)
Format: physicochemical
Details: throughout the whole range from 5% to 95% relative humidity
Method: The measurement was carried out using “DVS” or “SGA-100”, under the conditions of temperature: 25° C., measurement range: 5 to 95% relative humidity, and measurement interval: 5% relative humidity.
For the measurement of hygroscopicity, “VTI SGA-100” was used under the conditions of temperature: 25° C., measurement range: 5 to 95% relative humidity, and measurement interval: 5% relative humidity.

| Structure (SMILES) | moisture retaining amount [%] |
| --- | --- |
| CC(C)c1nnc(-c2ccc(-c3ccccc3)nc2)n1-c1cccc2nonc12 [β-form crystal, 4-[3-isopropyl-5-(6-phenyl-3-pyridyl)-4H-1,2,4-triazol-4-yl]-2,1,3-benzoxadiazole] | ≤ 0.2 |
| CC(C)c1nnc(-c2ccc(-c3ccccc3)nc2)n1-c1cccc2nonc12 [γ-form crystal, 4-[3-isopropyl-5-(6-phenyl-3-pyridyl)-1,2,4-triazol-4-yl]-2,1,3-benzoxadiazole] | ≤ 0.2 |
